# Measurements: PubChem BioAssay AID1439 (NMMLSC, 2008)
# Protein sequences, listed by entry. Tags and fused reporters are not part of them.
# UniProt P09471, whole entry, looked up: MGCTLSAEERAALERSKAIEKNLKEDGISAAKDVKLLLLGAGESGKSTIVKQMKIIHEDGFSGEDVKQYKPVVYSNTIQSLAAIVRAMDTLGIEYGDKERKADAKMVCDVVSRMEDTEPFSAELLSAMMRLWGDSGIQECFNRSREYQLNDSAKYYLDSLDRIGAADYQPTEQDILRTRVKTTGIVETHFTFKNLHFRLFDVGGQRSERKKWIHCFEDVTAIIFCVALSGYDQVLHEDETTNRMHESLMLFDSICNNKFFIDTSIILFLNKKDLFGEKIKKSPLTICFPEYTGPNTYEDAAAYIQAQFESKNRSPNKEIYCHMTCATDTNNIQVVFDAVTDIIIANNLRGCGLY
# The whole screen tested about 220,000 compounds, of which about 770 (0.35%) were called active. The shares of active, inactive and inconclusive entries below differ from those in the screen. No stated cut-off is given here; in the data, active means binding response below about 49% or above about 150%; inconclusive means no clear call, values can overlap the other calls; inactive means in between.
# Molecular target: Guanine nucleotide-binding protein G(o) subunit alpha (Homo sapiens) (UniProt P09471)
# Assay: RGS7-Galphao binding modulators, primary screen, biochemical, multiplexed bead flow cytometry (AID 1439);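 further: fluorescent Galphao held in activated GDP-AlF4 state binding bead-coupled RGS7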
# Settings: at 10 µM, actives lie on both sides
row,Structure (SMILES),binding response (% of control)
1,N=C1S/C(=C\c2ccco2)C(=O)N1c1nccs1,inconclusive: 93.3%
2,CSc1nc(C)c2c(n1)N(c1ccc(F)cc1)CC2,inactive: 105%
3,CCOc1ccc(CNC(=S)N/N=C/c2ccc(OC)c(OC)c2)cc1,inactive: 100%
4,O=C(Nc1ccncc1)c1ccccc1-c1ccccc1,inconclusive: 101%
5,O=C(CS(=O)(=O)c1ccccc1)N1CCc2ccccc21,inconclusive: 80%
6,CC1=NN(Cc2ccccc2)C(=O)C1C(c1ccncc1)C(C#N)C#N (centres undefined),inconclusive: 85.6%
7,O=c1oc(-c2ccccc2NS(=O)(=O)c2ccc(F)cc2)nc2ccccc12,inconclusive: 89.8%
8,N#Cc1nc(COc2ccc(-c3ccccc3)cc2)oc1NCc1cccnc1,active: 202% [activator]
9,Cc1ccc(S(=O)(=O)N(C)C)cc1[N+](=O)[O-],inconclusive: 106%
10,O=C(c1cccc(F)c1)N1CCN(C(=O)c2nn3cccnc3c2Cl)CC1,inactive: 103%
11,O=C(OCC(=O)N1CCCC1)c1ccc(NS(=O)(=O)c2cccs2)cc1O,inconclusive: 104%
12,CCCCCC(=O)NC(=S)NC1C2CC3CC(C2)CC1C3 (centres undefined),inconclusive: 94.1%
13,CCOc1[nH]n(-c2ccccc2)c(=O)c1C=Nc1ccc(F)cc1F,inconclusive: 98.2%
14,O=[N+]([O-])c1cccnc1Oc1ccc(C2SCCS2)cc1,inconclusive: 72.4%
15,Cc1sc(N)c(C(=O)c2ccccc2)c1C,active: 253% [activator]
16,COc1ccc(NC(=O)COc2ccc3oc(=O)cc(C)c3c2)cc1,inconclusive: 50.3%
17,Cc1ccc(C(=O)N/N=C2\CC3CC=CC23)c(C)c1 (centres undefined),inconclusive: 85.5%
18,CCN(CC)CCC(c1ccc2c(c1)OCO2)c1c(OC)cc(OC)c2c(-c3ccccc3)cc(=O)oc12 (centres undefined),inconclusive: 85%
19,COc1ccc(NC(=O)Nc2ccc(CC(=O)O)cc2)cc1,inconclusive: 115%
20,O=c1cc(-c2ccccc2)nc(SCc2ccccc2F)[nH]1,inactive: 96%
21,O=C(Nc1ccccc1)C1CC(=O)n2c(nc3ccccc32)N1 (centres undefined),inconclusive: 118%
22,CCOC(=O)c1c(NC(=O)Cn2nc(C(=O)O)c3ccccc3c2=O)sc(CC)c1C,inconclusive: 114%
23,CCN(CC)CCCN=Cc1c(-c2ccccc2)[nH]n(-c2nc3ccccc3s2)c1=O,inconclusive: 80.1%
24,COc1ccc(CC(=O)NCc2csc(-c3cccs3)n2)cc1OC,inconclusive: 101%

row,Structure (SMILES),binding response (% of control)
1,CNC(=O)N(O)C1N(/N=C/c2cccs2)C(=S)SC1(C)C (centres undefined),inconclusive: 111%
2,Cc1cc(N2CCCCC2)nc(-c2ccc(Br)cc2)n1,inconclusive: 109%
3,O=C(O)C[C@@H](O)C(=O)O,inactive: 97.3%
4,Cc1ccccc1Nc1nc(N)nc(CCl)n1,inconclusive: 48.1%
5,CCC(=O)NCCc1nc2ccccc2[nH]1,inactive: 98.3%
6,O=C(NNC(=O)C1CCCO1)c1ccc(F)cc1 (centres undefined),inactive: 98.2%
7,CC1(C)SC(=S)N(c2ccccc2)C1/[N+]([O-])=C/c1cccc([N+](=O)[O-])c1 (centres undefined),inconclusive: 115%
8,CCCCCOC(=O)CSc1n[nH]c(=O)[nH]c1=O,inactive: 98.8%
9,CCOC(=O)CSc1n[nH]c(=S)s1,inconclusive: 80.5%
10,CN(Cc1cccnc1)Cc1cn[nH]c1-c1ccc(-c2ccccc2)cc1,inconclusive: 67%
11,c1ccc(-c2ccccc2OCCCN2CCOCC2)cc1,inactive: 103%
12,COc1ccc(-c2nnnn2C(C)C)cc1,inconclusive: 85.5%
13,CC(C)=CCN1CCN(Cc2cccnc2)CC1CCO (centres undefined),inactive: 97.1%
14,Cc1nn2c(=S)[nH]nc2[nH]c1=O,inconclusive: 108%
15,CC1CN(Cc2nnc(-c3ccccc3)o2)CC(C)O1 (centres undefined),inactive: 96.9%
16,C=CCNC(=S)N1CCN(C2CCCCC2)CC1,inconclusive: 82.2%
17,Cc1ccccc1NC(=O)c1c(C)[nH]c(=S)c(C#N)c1-c1ccc(Cl)cc1,inconclusive: 98.1%
18,CC(=O)Nc1ccc(NC(=O)CNC(=O)COc2ccccc2)cc1,inconclusive: 106%
19,Cc1ccc(C)c(NC(=O)CS(=O)(=O)c2cccc3nsnc23)c1,inconclusive: 107%
20,Cc1ccc2nc(NCc3ccccc3)c(C#N)cc2c1,inconclusive: 98.7%
21,CCOC(=O)NC(=O)c1cn(N(C)c2ncc(C(F)(F)F)cc2Cl)c(=O)[nH]c1=O,inconclusive: 121%
22,CC(=O)c1cccc(OCC(=O)N(C)CC(=O)Nc2ccc(F)cc2)c1,inconclusive: 130%
23,COCCCNC(=S)Nc1cccc(SC)c1,inconclusive: 105%
24,Cc1cc(Cl)ccc1OCC(=O)N/N=C/c1ccc(OC2OC(CO)C(O)C(O)C2O)cc1 (centres undefined),inconclusive: 82.1%

# Copied from above (24 entries):
row,Structure (SMILES),binding response (% of control)
1,CNC(=O)N(O)C1N(/N=C/c2cccs2)C(=S)SC1(C)C (centres undefined),inconclusive: 111%
2,Cc1cc(N2CCCCC2)nc(-c2ccc(Br)cc2)n1,inconclusive: 109%
3,O=C(O)C[C@@H](O)C(=O)O,inactive: 97.3%
4,Cc1ccccc1Nc1nc(N)nc(CCl)n1,inconclusive: 48.1%
5,CCC(=O)NCCc1nc2ccccc2[nH]1,inactive: 98.3%
6,O=C(NNC(=O)C1CCCO1)c1ccc(F)cc1 (centres undefined),inactive: 98.2%
7,CC1(C)SC(=S)N(c2ccccc2)C1/[N+]([O-])=C/c1cccc([N+](=O)[O-])c1 (centres undefined),inconclusive: 115%
8,CCCCCOC(=O)CSc1n[nH]c(=O)[nH]c1=O,inactive: 98.8%
9,CCOC(=O)CSc1n[nH]c(=S)s1,inconclusive: 80.5%
10,CN(Cc1cccnc1)Cc1cn[nH]c1-c1ccc(-c2ccccc2)cc1,inconclusive: 67%
11,c1ccc(-c2ccccc2OCCCN2CCOCC2)cc1,inactive: 103%
12,COc1ccc(-c2nnnn2C(C)C)cc1,inconclusive: 85.5%
13,CC(C)=CCN1CCN(Cc2cccnc2)CC1CCO (centres undefined),inactive: 97.1%
14,Cc1nn2c(=S)[nH]nc2[nH]c1=O,inconclusive: 108%
15,CC1CN(Cc2nnc(-c3ccccc3)o2)CC(C)O1 (centres undefined),inactive: 96.9%
16,C=CCNC(=S)N1CCN(C2CCCCC2)CC1,inconclusive: 82.2%
17,Cc1ccccc1NC(=O)c1c(C)[nH]c(=S)c(C#N)c1-c1ccc(Cl)cc1,inconclusive: 98.1%
18,CC(=O)Nc1ccc(NC(=O)CNC(=O)COc2ccccc2)cc1,inconclusive: 106%
19,Cc1ccc(C)c(NC(=O)CS(=O)(=O)c2cccc3nsnc23)c1,inconclusive: 107%
20,Cc1ccc2nc(NCc3ccccc3)c(C#N)cc2c1,inconclusive: 98.7%
21,CCOC(=O)NC(=O)c1cn(N(C)c2ncc(C(F)(F)F)cc2Cl)c(=O)[nH]c1=O,inconclusive: 121%
22,CC(=O)c1cccc(OCC(=O)N(C)CC(=O)Nc2ccc(F)cc2)c1,inconclusive: 130%
23,COCCCNC(=S)Nc1cccc(SC)c1,inconclusive: 105%
24,Cc1cc(Cl)ccc1OCC(=O)N/N=C/c1ccc(OC2OC(CO)C(O)C(O)C2O)cc1 (centres undefined),inconclusive: 82.1%

# Next part:

row,Structure (SMILES),binding response (% of control)
1,Cc1cccc(C)c1OCC(O)CN1CCN(c2ccccn2)CC1 (centres undefined),inconclusive: 91.2%
2,Cc1cc(N)nc(C)c1C#N,inactive: 98.4%
3,O=C(NC1CC1)C1=C[C@@H](c2csc3ccccc23)C[C@@H](OCCCCO)O1,inconclusive: 83.8%
4,Cc1cc(C)n2nc(C(=O)NNC(=O)c3ccc(Cl)cc3)nc2n1,inconclusive: 91.8%
5,N#Cc1ccc(S(=O)(=O)NC2CCN(Cc3ccccc3)CC2)cc1,inconclusive: 113%
6,COC(=O)C(N)Cc1ccc(OC)c([N+](=O)[O-])c1 (centres undefined),inconclusive: 40.8%
7,CC(=O)N(c1nc(/C=C\C(=O)O)cs1)c1ccccc1F,inconclusive: 73.9%
8,Cc1ccc2c(c1)C(=C(C#N)C#N)C(=O)N2CCN1CCCCC1,inconclusive: 101%
9,COc1ccccc1OCC(=O)NNC(=O)c1c(-c2ccccc2Cl)noc1C,inactive: 86.9%
10,CC(C)Cn1c(=O)n(C)c(=O)c2[nH]cnc21,inconclusive: 95.1%
11,Cc1cc(N/N=C/c2ccccc2[N+](=O)[O-])nc(-n2nc(C)cc2C)n1,inconclusive: 113%
12,O=C(O)CC(NCc1ccco1)C(=O)Nc1cccc(O)c1 (centres undefined),inconclusive: 103%
13,COc1ccc(CCNC(=O)c2c([S-])n(-c3ccc(C)cc3)c3cccc[n+]23)cc1,inconclusive: 114%
14,CCOC(=O)c1nc2sc3c(c2c(=O)[nH]1)CCC(C)C3 (centres undefined),inconclusive: 124%
15,O=C(Nc1cccnc1N1CCOCC1)c1cccs1,inconclusive: 76.7%
16,COc1ccc(N2CCN(C3CC(=O)N(Cc4ccccc4)C3=O)CC2)cc1 (centres undefined),inconclusive: 99%
17,O=C1[C@@H]2[C@@H]3C[C@@H]([C@H]4ON=C(c5ccc(Cl)cc5)[C@@H]34)[C@@H]2C(=O)N1C1CCCCC1,inactive: 99.6%
18,S=C1NCCNC(=S)NCCOCCN1,inconclusive: 94.6%
19,CCN1/C(=C/C=C/C=C/c2sc3ccccc3[n+]2CC)Sc2ccccc21,inactive: 122%
20,OC1CCN(C(=S)Nc2ccc(Nc3ccccc3)cc2)CC1,inconclusive: 106%
21,Nc1nc(SCC(=O)Nc2ccc3c(c2)OCO3)n[nH]1,inconclusive: 114%
22,Cc1ccccc1NC(=S)Nc1ccc2cn[nH]c2c1,inconclusive: 110%
23,C/C(=C\C=C(C#N)C#N)c1cc(C#N)c(N)o1,inconclusive: 109%
24,CCOc1ccc(C(C)=O)cc1NC(=O)/C=C\C(=O)O,inactive: 96.2%

row,Structure (SMILES),binding response (% of control)
1,C[C@H](NC(=O)c1nc[nH]c1C(=O)N[C@@H](C)C(=O)OC(C)(C)C)C(=O)OC(C)(C)C,inconclusive: 128%
2,O=C(CN1C(=O)c2ccccc2S1(=O)=O)c1ccc2c(c1)OCCO2,inconclusive: 109%
3,O=C(Nc1ccccc1F)Nc1ccccc1N1CCCCC1,inconclusive: 90.9%
4,O=C1C(=O)N2C(=C1C(=O)N1CCCCCC1)c1ccccc1CC21CCCC1,inconclusive: 109%
5,NNC(=O)c1ccc(Cn2cccn2)o1,inconclusive: 223%
6,CCOc1cc(/C=N/N2CCOCC2)ccc1OCc1ccc(C(=O)OC)o1,inactive: 93.4%
7,COc1ccc(NC(=O)Nc2nc3ccccc3s2)cc1,inconclusive: 121%
8,COc1cc2[nH]c(=O)n(CCCCCC(=O)NCCc3c[nH]c4ccccc34)c(=O)c2cc1OC,inactive: 110%
9,CN(Cc1ccccc1)C(=O)COC(=O)c1ccc(Cl)cc1N,inconclusive: 101%
10,O=C1C2C3C=CC(C3)C2C(=O)N1CCN1CCN(Cc2ccc([N+](=O)[O-])cc2)CC1 (centres undefined),inactive: 98.5%
11,CCn1nc(C(=O)OCc2cccc(S(=O)(=O)N(C)C)c2)c2ccccc2c1=O,inconclusive: 95.5%
12,Cc1cccc(N2CCN(C(=S)Nc3ccc4nc(N5CCN(C)CC5)cc(C)c4c3)CC2C)c1 (centres undefined),inconclusive: 108%
13,CCOC(=O)CNC(=O)CSc1nnc(NC(=O)c2ccccc2Cl)s1,inconclusive: 120%
14,Cc1cccc(NC(=O)Cn2c(O)c(N=NC(=O)c3ccncc3)c3ccccc32)c1,inconclusive: 110%
15,COc1ccc(N2CCN(C(=O)CN(C)S(=O)(=O)c3cc(C)ccc3OC)CC2)cc1,inactive: 103%
16,O=C1C2C3C=CC(C3)C2C(=O)N1Nc1ccccc1 (centres undefined),inconclusive: 107%
17,COc1cc(/C=C2\Oc3cc(O)ccc3C2=O)ccc1O,inconclusive: 90.3%
18,COc1cccc(/C=C/c2nc3c(cnn3-c3ccccc3)c(=O)[nH]2)c1,inconclusive: 123%
19,FC(F)(F)c1cccc(-c2nc3nc(Cl)c(Cl)nc3[nH]2)c1,inconclusive: 108%
20,CC(=O)Nc1ccc(O)cc1[N+](=O)[O-],inconclusive: 43.5%
21,COC(=O)Cc1[nH]n(-c2ccccc2)c(=O)c1C=Nc1ccc(C)cc1,inconclusive: 105%
22,COC(=O)c1ccc(OCC(=O)Nc2ccsc2C(=O)OC)cc1,inconclusive: 97.1%
